Assay results as given in PubChem BioAssay AID504467 (National Center for Advancing Translational Sciences (NCATS), 2011).
Out of some 330,000 compounds screened, about 7,700 (2.3%) were called active. Inconclusive results, whose numbers are uncertain, are shown with a selection of clear calls. Calls come from the whole dose curve; as a rule, active = well fitted inhibition curve with a large enough effect; inconclusive = small, poorly fitted or top-dose-only effect, or effect the other way; inactive = flat fitted curve, though single readings scatter. Potencies of inconclusive entries are doubtful fits and often do not repeat.

Test: qHTS screen for small molecules that inhibit ELG1-dependent DNA repair in human embryonic kidney (HEK293T) cells expressing luciferase-tagged ELG1; note: nearly all actives have a fitted effect of over 55% in size
Details: HEK293T ELG1-luciferase reporter, luminescence, 16 h, DNA damage induced by 5-fluorouridine; series mostly up to 46.1 µM
Summary of the method: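 Cells (2,000 per well) received 5-fluorouridine plus test compound or DMSO and were incubated 16 hr at 37 °C, 5% CO2. Luciferase activity was read by luminescence 30 min after ONE-Glo addition; signal suppression marked inhibition of damage-induced ELG1 function.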
Potency is the fitted concentration of half-maximal effect.

| SMILES | Potency |
| --- | --- |
| Clc1cccc(-c2ccc3ncnc(NCc4cccnc4)c3c2)c1 | inconclusive: 29.1 µM [inhibitor, single point] |
| O=C(NC(=S)N1CCCCC1)c1cccnc1 | inactive |
| NC(=O)Cn1cc(C(=O)C(=O)N2CCOCC2)c2ccccc21 | inactive |
| Cc1cccc(C(=O)N2CCCCCC2)c1 | inactive |
| CC(=O)C1=C(C)NC(SCC(=O)Nc2nccs2)=C(C#N)C1c1ccccc1Cl (stereo not given) | inactive |
| Cc1ccccc1C(=O)N1CCC(C(=O)Nc2ccc(S(=O)(=O)N3CCCC3)cc2)CC1 | inconclusive: 32.6 µM [inhibitor, partial curve, poor fit] |
| Cc1ccc(-c2nn(-c3cccc(F)c3)cc2CN(Cc2nccn2C)C(C)C)o1 | inconclusive: 29.1 µM [inhibitor, single point] |
| Cc1ccc(S(=O)(=O)N2CCN(C(C)CC(=O)O)CC2)cc1 (stereo not given) | inconclusive: 20.6 µM [activator, partial curve, poor fit] |
| CCOc1ccc(C(=O)Nc2cccc(C)n2)cc1 | inconclusive: 1.46 µM [activator, partial curve] |
| Cc1cccc2sc(NNC(=O)c3ccc(S(=O)(=O)N4CCCC(C)C4)cc3)nc12 (stereo not given) | inconclusive: 20.6 µM [inhibitor, single point] |
| Cc1ccc(-n2c(-c3cccs3)nc3nc4ccccc4nc32)cc1 | inconclusive: 8.2 µM [inhibitor, partial curve] |
| Cc1nc(CSc2ccc(Cl)cc2)cc(N2CC(C)OC(C)C2)n1 (stereo not given) | inconclusive: 18.3 µM [inhibitor, partial curve, poor fit] |
| CCOC(=O)C1CCCN(S(=O)(=O)c2ccc(OC)c3ccccc23)C1 (stereo not given) | inconclusive: 29.1 µM [inhibitor, single point] |
| CC1(C)Cc2c(sc(NC(=O)c3ccccc3)c2C(=O)O)CO1 | inconclusive: 18.3 µM [activator, single point] |
| COc1ccccc1OCC(=O)NCC1CCCN(C(=O)c2ccccc2SC)C1 (stereo not given) | inactive |
| CC(=O)NC(=O)c1ccc(-c2ccc(Cl)cc2)o1 | inconclusive: 14.6 µM [activator, partial curve] |
| CC(=O)NC(C)c1cc(Cl)c2cccnc2c1O (stereo not given) | inconclusive: 18.3 µM [inhibitor, single point] |
| COc1cc(OC)c(NC(=O)C(=O)CC(=O)c2ccc(C)cc2C)cc1Cl | inconclusive: 20.6 µM [inhibitor, single point] |
| COc1ccc(-n2c(C)cc(C(=O)COC(=O)Cn3cnc4ccccc43)c2C)cc1 | inactive |
| Cc1cccc(-n2ncc3c(N4CCC(C)CC4)ncnc32)c1 | inconclusive: 2.59 µM [activator, partial curve] |

A portion of the results above:

| SMILES | Potency |
| --- | --- |
| COc1cc(OC)c(NC(=O)C(=O)CC(=O)c2ccc(C)cc2C)cc1Cl | inconclusive: 20.6 µM [inhibitor, single point] |
| COc1ccc(-n2c(C)cc(C(=O)COC(=O)Cn3cnc4ccccc43)c2C)cc1 | inactive |
